Reference: PMC7732128, “Regulation of gene transcription by thyroid hormone receptor β agonists in clinical development for the treatment of non-alcoholic steatohepatitis (NASH)” (PLoS ONE, 2020)

Assay: High-fat diet fed rat study: serum total T3 and T4 levels
Assay type: in vivo
Conditions: HFD rats, 24 hrs post-dose

Q: For `N[C@@H](Cc1cc(I)c(Oc2ccc(O)c(I)c2)c(I)c1)C(=O)O` [T3, triiodothyronine], which “serum T3 levels (exogenous and endogenous not distinguished)” value (0.5 mg/kg I.P. single dose) is on record?
A: significantly elevated

Q: What about the “serum T4 levels” value (0.5 mg/kg I.P. single dose) of the same compound?
A: significantly reduced

Q: Which “effect on serum total T3 levels” value (MGL-3196 P.O. single dose) does the source give for `CC(C)c1cc(Oc2c(Cl)cc(-n3nc(C#N)c(=O)[nH]c3=O)cc2Cl)n[nH]c1=O` [MGL-3196, 2-[3,5-dichloro-4-(5-isopropyl-6-oxo-1,6-dihydropyridazin-3-yloxy)phenyl]-3,5-dioxo-2,3,4,5-tetrahydro[1,2,4]triazine-6-carbonitrile] here?
A: did not significantly alter

Q: What about the “effect on serum total T4” value (MGL-3196 P.O. single dose) of the same compound?
A: dose-dependent decrease
